Article doi:10.1101/2021.02.07.430173
Read-outs that look alike come from different tables or passages of the source. No constants are given. Whether binding was seen depends on the method and setting. Binding seen in cells or lysates may run through a third protein. Some binding calls cover weakened binding; strength is not graded here. For part of these data: Tags and fused reporters may be left off the sequences shown. One block for each molecule: values may come before it.

Amino acid sequences for entries named in this document (tags omitted).
UniProt Q3TKT4: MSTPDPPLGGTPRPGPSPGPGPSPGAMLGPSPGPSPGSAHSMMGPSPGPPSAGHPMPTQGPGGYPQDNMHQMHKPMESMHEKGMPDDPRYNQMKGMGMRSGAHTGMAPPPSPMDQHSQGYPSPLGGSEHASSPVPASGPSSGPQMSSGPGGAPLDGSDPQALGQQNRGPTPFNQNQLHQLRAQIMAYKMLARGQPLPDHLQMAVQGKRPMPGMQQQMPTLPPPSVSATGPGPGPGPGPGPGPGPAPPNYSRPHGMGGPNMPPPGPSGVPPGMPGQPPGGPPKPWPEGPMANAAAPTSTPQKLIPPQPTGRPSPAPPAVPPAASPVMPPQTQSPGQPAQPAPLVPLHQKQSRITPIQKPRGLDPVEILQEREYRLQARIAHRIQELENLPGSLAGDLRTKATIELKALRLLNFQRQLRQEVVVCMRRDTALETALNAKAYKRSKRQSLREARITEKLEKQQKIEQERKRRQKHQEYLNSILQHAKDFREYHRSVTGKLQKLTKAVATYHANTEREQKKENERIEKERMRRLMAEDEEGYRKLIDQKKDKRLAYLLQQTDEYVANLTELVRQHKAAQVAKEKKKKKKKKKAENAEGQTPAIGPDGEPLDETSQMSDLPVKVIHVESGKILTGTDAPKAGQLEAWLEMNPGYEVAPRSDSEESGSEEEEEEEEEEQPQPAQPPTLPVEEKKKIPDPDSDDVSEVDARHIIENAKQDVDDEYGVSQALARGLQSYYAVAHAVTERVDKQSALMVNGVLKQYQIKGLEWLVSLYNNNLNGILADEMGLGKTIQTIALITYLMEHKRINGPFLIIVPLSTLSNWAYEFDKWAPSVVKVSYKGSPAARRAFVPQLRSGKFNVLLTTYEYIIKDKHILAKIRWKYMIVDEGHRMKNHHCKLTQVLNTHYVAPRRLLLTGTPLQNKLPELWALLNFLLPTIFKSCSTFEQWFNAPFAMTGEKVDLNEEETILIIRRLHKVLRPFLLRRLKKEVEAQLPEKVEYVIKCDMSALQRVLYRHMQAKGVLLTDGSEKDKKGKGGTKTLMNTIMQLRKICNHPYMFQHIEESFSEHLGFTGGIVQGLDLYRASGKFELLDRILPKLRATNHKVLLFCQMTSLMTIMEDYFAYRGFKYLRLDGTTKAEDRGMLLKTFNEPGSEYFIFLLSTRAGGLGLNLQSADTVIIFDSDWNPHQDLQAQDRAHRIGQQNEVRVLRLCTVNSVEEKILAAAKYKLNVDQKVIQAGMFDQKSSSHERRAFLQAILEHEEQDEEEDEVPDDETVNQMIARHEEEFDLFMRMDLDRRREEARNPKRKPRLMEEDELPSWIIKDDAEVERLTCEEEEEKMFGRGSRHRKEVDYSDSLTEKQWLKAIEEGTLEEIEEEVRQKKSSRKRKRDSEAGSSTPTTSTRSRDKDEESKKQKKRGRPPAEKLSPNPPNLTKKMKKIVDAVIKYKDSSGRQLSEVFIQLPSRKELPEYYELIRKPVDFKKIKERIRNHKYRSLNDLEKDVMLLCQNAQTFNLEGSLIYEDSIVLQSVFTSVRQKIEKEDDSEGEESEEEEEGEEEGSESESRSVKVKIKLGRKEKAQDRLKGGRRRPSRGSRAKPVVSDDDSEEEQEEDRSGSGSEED
UniProt P97496: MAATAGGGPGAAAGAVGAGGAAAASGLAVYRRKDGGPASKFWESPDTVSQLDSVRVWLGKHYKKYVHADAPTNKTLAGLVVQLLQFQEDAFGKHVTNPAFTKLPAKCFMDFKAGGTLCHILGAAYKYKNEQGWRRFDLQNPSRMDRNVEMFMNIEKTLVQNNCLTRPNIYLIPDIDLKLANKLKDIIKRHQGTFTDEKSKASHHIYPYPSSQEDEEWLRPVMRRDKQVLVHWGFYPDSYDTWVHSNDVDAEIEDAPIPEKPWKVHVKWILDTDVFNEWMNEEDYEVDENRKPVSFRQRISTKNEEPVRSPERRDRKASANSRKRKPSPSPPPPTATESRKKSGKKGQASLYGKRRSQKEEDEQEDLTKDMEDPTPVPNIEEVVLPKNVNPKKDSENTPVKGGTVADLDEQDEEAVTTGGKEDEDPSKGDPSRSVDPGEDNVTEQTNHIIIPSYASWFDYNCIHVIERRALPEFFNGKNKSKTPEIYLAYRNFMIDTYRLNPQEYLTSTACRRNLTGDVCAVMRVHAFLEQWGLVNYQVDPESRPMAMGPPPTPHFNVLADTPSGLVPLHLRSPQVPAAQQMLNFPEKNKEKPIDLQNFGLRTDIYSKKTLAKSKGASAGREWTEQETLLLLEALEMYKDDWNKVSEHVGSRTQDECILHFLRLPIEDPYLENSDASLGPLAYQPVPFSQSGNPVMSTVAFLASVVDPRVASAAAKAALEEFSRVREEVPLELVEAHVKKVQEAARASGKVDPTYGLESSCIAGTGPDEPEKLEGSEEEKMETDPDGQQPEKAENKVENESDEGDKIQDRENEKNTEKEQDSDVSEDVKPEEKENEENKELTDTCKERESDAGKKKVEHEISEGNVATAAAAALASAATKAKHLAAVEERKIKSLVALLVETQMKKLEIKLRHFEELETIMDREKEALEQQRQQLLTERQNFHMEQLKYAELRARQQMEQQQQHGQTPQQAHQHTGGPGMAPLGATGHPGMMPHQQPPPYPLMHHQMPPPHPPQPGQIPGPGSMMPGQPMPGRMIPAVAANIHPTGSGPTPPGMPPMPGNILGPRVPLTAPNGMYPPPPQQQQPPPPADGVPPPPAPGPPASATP
UniProt P23198: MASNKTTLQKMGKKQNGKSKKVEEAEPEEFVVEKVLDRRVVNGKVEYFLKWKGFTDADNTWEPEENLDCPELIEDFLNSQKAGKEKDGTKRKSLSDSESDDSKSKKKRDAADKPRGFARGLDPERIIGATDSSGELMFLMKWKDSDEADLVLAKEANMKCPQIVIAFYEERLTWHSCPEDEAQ
UniProt A2BH40: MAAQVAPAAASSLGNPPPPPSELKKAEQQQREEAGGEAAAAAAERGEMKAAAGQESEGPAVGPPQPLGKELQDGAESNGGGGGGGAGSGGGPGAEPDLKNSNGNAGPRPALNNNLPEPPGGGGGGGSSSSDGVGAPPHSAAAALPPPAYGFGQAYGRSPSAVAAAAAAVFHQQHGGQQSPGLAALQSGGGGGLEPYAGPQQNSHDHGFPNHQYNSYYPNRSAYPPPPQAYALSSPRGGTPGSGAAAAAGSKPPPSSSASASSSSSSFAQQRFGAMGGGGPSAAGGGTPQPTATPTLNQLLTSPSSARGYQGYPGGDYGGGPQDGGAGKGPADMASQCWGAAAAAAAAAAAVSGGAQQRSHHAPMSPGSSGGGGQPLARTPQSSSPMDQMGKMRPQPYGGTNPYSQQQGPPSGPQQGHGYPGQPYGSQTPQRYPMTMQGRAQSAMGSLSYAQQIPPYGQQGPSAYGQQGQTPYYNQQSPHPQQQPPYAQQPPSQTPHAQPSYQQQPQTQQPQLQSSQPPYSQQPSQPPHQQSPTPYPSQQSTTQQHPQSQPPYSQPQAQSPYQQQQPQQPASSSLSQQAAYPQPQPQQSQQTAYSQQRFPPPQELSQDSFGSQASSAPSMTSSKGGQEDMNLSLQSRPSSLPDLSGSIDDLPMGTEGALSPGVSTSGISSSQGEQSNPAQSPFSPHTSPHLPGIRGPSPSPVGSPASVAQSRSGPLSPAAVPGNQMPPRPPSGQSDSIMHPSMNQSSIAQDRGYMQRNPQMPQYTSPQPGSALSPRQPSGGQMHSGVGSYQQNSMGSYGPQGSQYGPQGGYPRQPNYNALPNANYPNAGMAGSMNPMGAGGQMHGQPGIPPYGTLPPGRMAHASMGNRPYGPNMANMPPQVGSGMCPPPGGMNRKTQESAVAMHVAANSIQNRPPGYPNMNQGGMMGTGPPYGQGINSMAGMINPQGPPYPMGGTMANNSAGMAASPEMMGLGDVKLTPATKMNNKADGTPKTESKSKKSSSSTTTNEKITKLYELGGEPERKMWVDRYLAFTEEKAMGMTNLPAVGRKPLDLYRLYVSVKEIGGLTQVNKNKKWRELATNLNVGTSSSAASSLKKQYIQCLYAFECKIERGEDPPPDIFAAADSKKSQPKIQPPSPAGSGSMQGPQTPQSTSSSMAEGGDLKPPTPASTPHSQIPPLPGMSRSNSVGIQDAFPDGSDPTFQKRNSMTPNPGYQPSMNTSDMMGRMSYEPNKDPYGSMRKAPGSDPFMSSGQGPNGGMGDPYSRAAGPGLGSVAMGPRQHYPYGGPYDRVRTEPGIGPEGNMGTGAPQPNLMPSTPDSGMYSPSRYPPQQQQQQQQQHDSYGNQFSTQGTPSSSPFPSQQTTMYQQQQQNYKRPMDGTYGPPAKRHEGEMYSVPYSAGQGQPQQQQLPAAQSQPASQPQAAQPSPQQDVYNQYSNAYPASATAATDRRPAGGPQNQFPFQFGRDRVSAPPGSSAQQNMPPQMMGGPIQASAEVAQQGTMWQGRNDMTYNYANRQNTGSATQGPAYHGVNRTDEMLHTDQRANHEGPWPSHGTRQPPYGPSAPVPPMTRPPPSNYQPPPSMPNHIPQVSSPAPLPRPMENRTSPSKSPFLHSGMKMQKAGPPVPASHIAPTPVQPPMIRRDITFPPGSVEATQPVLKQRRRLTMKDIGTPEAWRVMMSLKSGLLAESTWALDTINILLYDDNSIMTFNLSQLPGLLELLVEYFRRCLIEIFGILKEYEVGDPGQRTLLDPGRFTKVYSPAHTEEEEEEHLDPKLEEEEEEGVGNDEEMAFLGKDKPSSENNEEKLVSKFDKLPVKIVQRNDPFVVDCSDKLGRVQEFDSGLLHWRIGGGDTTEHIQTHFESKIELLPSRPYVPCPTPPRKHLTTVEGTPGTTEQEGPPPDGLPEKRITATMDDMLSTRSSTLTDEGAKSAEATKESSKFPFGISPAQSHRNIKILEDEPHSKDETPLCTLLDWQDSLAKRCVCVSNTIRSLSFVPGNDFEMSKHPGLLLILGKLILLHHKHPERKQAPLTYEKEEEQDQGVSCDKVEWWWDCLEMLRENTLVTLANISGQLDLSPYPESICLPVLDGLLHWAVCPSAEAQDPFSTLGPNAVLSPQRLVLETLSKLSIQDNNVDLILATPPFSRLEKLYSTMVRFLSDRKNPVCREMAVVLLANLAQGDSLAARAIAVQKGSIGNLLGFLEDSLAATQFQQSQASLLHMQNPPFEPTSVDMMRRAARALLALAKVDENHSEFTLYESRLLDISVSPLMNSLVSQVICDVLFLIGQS

Columns and labels:
Assay in all cases: co-IP
3×Flag-POGZ (mouse) [1] = target: T1, 3×Flag-POGZ (mouse) (UniProt Q8BZH4)
T1 sequence: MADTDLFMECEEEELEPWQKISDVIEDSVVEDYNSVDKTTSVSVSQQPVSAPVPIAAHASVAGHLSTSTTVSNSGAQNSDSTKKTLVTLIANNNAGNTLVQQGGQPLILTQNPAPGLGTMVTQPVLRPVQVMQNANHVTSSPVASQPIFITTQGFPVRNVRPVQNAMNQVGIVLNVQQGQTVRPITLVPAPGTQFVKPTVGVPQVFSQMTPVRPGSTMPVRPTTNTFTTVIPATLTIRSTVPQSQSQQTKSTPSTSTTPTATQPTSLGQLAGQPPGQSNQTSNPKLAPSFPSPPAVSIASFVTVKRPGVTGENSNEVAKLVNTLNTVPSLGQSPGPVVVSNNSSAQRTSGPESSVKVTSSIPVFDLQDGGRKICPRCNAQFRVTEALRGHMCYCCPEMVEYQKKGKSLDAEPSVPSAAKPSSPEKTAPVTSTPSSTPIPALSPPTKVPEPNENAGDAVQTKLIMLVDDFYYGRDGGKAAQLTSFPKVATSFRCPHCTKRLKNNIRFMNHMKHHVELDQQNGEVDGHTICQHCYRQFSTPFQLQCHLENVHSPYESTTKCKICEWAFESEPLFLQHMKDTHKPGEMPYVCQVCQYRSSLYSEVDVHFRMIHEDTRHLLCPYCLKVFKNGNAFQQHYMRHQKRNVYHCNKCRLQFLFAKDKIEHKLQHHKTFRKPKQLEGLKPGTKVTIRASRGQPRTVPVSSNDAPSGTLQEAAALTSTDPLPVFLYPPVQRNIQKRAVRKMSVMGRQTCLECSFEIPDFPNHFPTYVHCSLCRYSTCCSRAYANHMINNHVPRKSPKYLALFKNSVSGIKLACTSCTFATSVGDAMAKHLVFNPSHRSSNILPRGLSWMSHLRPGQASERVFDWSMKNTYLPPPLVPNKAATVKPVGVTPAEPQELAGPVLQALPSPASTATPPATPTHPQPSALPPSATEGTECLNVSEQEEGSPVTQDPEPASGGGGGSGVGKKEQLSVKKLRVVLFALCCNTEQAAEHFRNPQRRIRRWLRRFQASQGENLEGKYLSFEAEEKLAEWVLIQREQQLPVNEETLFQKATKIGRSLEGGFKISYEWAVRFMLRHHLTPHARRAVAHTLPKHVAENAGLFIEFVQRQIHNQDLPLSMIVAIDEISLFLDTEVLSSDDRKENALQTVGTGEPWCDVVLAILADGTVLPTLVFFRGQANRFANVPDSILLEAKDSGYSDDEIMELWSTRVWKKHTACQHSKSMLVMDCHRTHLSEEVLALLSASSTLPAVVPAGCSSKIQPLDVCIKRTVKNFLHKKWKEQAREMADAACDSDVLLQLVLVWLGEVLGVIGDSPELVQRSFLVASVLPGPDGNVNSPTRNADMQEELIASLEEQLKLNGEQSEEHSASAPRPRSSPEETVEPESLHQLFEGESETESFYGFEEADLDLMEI

3×Flag-POGZ (mouse) [2] = target: T1, 3×Flag-POGZ (mouse); remark: listed apart in the source
[3] = target: T2, POGZ (endogenous, mouse ESCs) (mouse (endogenous in mouse ESCs)) (UniProt Q8BZH4)
T2 sequence: T1 sequence

[4] = target: T3, POGZ (over-expressed in HEK293T cells) (UniProt Q8BZH4)
T3 sequence: T1 sequence

[5] = target: T4, POGZ (in vitro synthesized, TnT) (UniProt Q8BZH4)
T4 sequence: T1 sequence

[6] = target: BRG1 (endogenous, mouse ESCs) (mouse (endogenous in mouse ESCs)) (UniProt Q3TKT4)
3×Flag-POGZ (mouse) [7] = target: T1, 3×Flag-POGZ (mouse); remark: listed apart in the source
[8] = target: T2, POGZ (endogenous, mouse ESCs) (mouse (endogenous in mouse ESCs)); remark: listed apart in the source
[9] = target: T5, ADNP (mouse ESCs) (mouse (endogenous in mouse ESCs)) (UniProt Q9Z103)
T5 sequence: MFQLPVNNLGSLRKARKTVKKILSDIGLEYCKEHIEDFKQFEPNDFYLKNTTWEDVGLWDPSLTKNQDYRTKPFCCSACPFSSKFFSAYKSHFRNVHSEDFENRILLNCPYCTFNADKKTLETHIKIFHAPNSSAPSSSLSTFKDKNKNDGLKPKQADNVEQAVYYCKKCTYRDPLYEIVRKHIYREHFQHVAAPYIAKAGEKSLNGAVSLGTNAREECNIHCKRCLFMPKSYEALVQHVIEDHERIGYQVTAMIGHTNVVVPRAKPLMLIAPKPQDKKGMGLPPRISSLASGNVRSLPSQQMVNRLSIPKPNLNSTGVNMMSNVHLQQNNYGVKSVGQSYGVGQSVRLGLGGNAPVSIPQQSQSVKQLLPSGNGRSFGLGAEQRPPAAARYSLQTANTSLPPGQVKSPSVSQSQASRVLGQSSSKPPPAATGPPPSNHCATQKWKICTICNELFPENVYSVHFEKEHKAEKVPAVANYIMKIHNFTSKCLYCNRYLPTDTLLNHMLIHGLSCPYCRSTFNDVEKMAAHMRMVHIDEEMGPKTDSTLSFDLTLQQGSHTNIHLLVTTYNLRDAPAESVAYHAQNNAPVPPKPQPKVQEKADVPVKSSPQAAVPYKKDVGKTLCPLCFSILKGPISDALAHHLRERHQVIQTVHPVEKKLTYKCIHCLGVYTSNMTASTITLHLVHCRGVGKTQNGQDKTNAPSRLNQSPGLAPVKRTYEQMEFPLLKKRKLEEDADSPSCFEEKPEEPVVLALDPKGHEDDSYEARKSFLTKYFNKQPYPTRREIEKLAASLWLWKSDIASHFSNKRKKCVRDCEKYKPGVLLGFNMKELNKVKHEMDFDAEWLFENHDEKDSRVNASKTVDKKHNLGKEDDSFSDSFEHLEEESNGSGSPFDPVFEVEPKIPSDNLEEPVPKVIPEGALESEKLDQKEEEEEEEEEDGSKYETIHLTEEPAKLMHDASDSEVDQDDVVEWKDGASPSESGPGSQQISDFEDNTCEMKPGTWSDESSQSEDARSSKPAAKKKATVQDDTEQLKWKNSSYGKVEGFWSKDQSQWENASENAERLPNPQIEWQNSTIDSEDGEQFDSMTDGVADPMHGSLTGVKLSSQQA

Molecule: FLAG-BAF155 (HEK293T) (from UniProt P97496 1-1104)
binding [4]: binds

Molecule: FLAG-BAF155 (in vitro synthesized, TnT) (from UniProt P97496 1-1104)
binding [5]: binds

Molecule: HP1γ/CBX3 (endogenous, mouse ESCs) (from UniProt P23198 1-183)
binding [6]: binds
binding (3×Flag-POGZ (mouse) [7]): binds
binding (3×Flag-POGZ (mouse) [1]): binds

Molecule: SMARCC1/BAF155 (endogenous, mouse ESCs) (from UniProt P97496 1-1104)
binding (3×Flag-POGZ (mouse) [1]): binds weakly

More lines, now with the values ahead:

binding (3×Flag-POGZ (mouse) [1]): binds weakly
Molecule: ARID1A/BAF250a (endogenous, mouse ESCs) (from UniProt A2BH40 1-2283)

binding (3×Flag-POGZ (mouse) [2]): binds
binding [3]: binds
binding (3×Flag-POGZ (mouse) [1]): binds
Molecule: BRG1 (endogenous, mouse ESCs) (from UniProt Q3TKT4 1-1613)

binding [8]: no binding
B1: ADNP (mouse ESCs) (protein, UniProt Q9Z103 1-1108)
chain: T5 sequence

binding [9]: no binding
B2: POGZ (endogenous, mouse ESCs) (protein, UniProt Q8BZH4 1-1409)
chain: T1 sequence
